Source: EP1117659B1, “SUBSTITUTED 3-CYANOQUINOLINES AS PROTEIN TYROSINE KINASES INHIBITORS” (Wyeth Holdings Corporation, priority 1998, dated 2000)

The chains behind the UniProt entries cited, without tags or fusion partners. Residues count along the entry.
UniProt P28482, 2-360 limits assumed: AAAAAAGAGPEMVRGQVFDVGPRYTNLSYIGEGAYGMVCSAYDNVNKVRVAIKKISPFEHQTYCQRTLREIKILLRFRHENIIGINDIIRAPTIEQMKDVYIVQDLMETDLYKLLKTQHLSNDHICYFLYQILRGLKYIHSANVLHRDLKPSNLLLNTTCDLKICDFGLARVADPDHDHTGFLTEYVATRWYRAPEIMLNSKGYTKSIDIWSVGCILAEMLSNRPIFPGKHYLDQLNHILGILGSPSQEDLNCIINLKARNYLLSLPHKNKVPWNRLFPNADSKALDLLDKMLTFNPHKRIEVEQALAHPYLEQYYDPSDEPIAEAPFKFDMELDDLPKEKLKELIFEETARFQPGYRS
UniProt Q02750, whole entry: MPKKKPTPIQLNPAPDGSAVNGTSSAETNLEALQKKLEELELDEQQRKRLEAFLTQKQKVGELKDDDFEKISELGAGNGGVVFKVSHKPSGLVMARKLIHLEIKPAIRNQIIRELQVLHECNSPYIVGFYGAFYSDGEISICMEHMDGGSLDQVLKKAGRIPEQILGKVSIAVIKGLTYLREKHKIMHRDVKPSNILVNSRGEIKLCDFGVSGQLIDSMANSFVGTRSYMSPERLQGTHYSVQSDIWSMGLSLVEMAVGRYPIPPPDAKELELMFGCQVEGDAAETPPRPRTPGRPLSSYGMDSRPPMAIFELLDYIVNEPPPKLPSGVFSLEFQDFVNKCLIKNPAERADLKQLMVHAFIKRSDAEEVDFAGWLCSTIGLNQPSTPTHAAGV

Biological target: Recombinant human MEK 1 (MAPKK) / recombinant human ERK2 (MAPK) (Mek-Erk) (Homo sapiens, UniProt P28482+Q02750)
Experiment: Mitogen Activated Protein Kinase (MAPK) assay, two component coupled Mek-Erk test
Assay type: biochemical
Details: read-out: Mek-Erk µM

Question: Which IC50 does the source give for `CCOc1cc2ncc(C#N)c(Nc3ccc4c(c3)NCC4)c2cc1OCC` here?
Answer: 2 µM, < 1 µM, 800 nM

The source holds more than one record for some entries. This list holds those alone. The source may hold further records. Values given together do not match, cause unknown; dose, time, organism, isomer or construct need not be as stated for each record.
